# Test results taken from PubChem BioAssay (Tox21).
# Sequences of proteins named here, by UniProt entry; tags and fusion partners are left off. A change or cut given only in a name is not applied to a line headed by its entry.
# UniProt P19793: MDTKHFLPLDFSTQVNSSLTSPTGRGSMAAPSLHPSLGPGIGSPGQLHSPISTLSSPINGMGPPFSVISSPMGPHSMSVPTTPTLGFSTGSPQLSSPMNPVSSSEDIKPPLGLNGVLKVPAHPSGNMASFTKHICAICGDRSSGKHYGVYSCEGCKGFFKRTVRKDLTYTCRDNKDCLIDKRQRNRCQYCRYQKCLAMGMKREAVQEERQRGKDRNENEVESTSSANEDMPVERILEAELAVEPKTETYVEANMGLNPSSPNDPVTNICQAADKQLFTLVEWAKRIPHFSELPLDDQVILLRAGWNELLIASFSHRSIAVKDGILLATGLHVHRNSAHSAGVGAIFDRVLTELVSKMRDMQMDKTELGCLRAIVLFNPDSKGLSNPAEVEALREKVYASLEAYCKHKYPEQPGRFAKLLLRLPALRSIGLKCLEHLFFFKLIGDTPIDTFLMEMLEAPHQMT
# Inconclusive means that the source gave no clear call. Such entries were picked first, then a sample of the others. Where the call is inconclusive, the potency comes from a doubtful curve fit. A structure can be active in one record and inactive in another. The source made the active and inactive calls. The call rests on the fitted dose curve.
# Target: Retinoic acid receptor RXR-alpha (Homo sapiens) (UniProt P19793)
# Experiment: qHTS assay to identify small molecule agonists of the RXR signaling pathway (AID 1159527); further: nearly all actives have a fitted effect of over 35% in size
# Conditions: HEK293T RXRa-UAS-bla, beta-lactamase ratio, 16 h; activation: at 76.8 µM (top of the series) unless noted
# Source text: U.S. Tox21 Program National Center for Advancing Translational Sciences [NCATS] NIH Chemical Genomics Center [NCGC] U.S. Environmental Protection Agency [EPA] National Institutes of Environmental Health Sciences [NIEHS] National Toxicology Program [NTP] U.S. Food and Drug Administration [FDA] Tox21 Assay Overview: The Retinoid X receptor (RXR), a nuclear hormone receptor expressed in liver, spleen, placenta, epidermis, central nervous system. These receptors are able to form homo and heterodimers with other nuclear receptors and due to this heterodimerizing ability, RXR functions as master regulators producing diverse physiological effects. Three subtypes of RXR exist; alpha, beta and gamma. Retinoid X receptor alpha (RXR-alpha) has potential roles in metabolic signaling pathways, skin alopecia, dermal cysts, cardiac development, insulin sensitization etc. Therefore screening environmental chemicals on RXR-alpha signaling can be used for the studies focused on such therapeutic applications. For quantification of RXR-alpha ligands signaling, GeneBLAzer RXR alpha-UAS-bla HEK 293T (Life Technologies, Carlsbad, CA) cells containing a beta-lactamase reporter-gene under control of Retinoid X receptor-alpha response element were used to screen Tox21 10K library.
# Tox21 Assay Protocol Summary: RXR-alpha HEK 293T cells were dispensed at 2,000 cells/6 uL of assay medium containing 2% charcoal-stripped FBS using a Multidrop Combi (ThermoFisher Scientific, Waltham, MA) dispenser. The assay was performed in black wall/clear-bottom 1536-well plates (Greiner Bio-One North America Inc. Monroe, NC). 9-cis retinoic acid was used as a positive control in the agonist mode screen. After the assay plates were incubated at 37 C and 5% CO2 for 5 hr, 23 nL of compounds dissolved in DMSO, positive controls or DMSO only were transferred to the assay plate by a Pintool station (Kalypsys, San Diego, CA). The assay plates were incubated at 37 C and 5% CO2 for 16 hr. One uL of LiveBLAzer B/G FRET substrate (Life Technologies) was added using a Flying Reagent Dispenser (Aurora Discovery, San Diego, CA) and the plates were incubated at room temperature for 2 hr. Fluorescence intensity (405 nm excitation, 460/530 nm emission) was measured using an Envision plate reader (PerkinElmer, Shelton, CT).
# On the % scale 0 is the no-effect control and ±100 the full control effect; potency means the concentration at half of the fitted maximal effect.
SMILES,activation,Potency
C=CCCCCCCCCC(=O)O,inconclusive: 9.33% [at 35.3 µM],active: 43.6 µM
CCCCCCOCCO,inconclusive: 2.49%,–
CCN(CC)CCc1nc(-c2ccccc2)no1,–,"inconclusive: 23.9 µM [rising, partial curve, poor fit]"
CCOCN(C(=O)CS(=O)(=O)O)c1c(C)cccc1CC,inactive: 3.01%,–
CCCCNC(=S)NCCCC,–,"inconclusive: 43.6 µM [rising, partial curve, poor fit]"
CC(C)C[C@H]1C(=O)N2CCC[C@H]2[C@]2(O)O[C@](NC(=O)[C@@H]3C=C4c5cccc6[nH]c(Br)c(c56)C[C@H]4N(C)C3)(C(C)C)C(=O)N12,inconclusive: -22.5% [at 35.3 µM],–
CNC(=S)NC,–,active: 38.9 µM
CC(=O)OCC(CCn1cnc2cnc(N)nc21)COC(C)=O,inactive: 9.02% [at 35.3 µM],–
CC(Cl)C(Cl)Cl (stereo not given),inconclusive: 2.59%,–
C=C(C)C(=O)OCC(C)C,inconclusive: 21.1%,–
C[C@@H]1CCC[C@H](C)N1CCCC(O)(c1ccccc1)c1ccccn1 (stereo not given in full),inactive: 7.07% [at 35.3 µM],–
CC1=CC(=C(c2ccc(N)cc2)c2ccc(N)cc2)C=CC1=N,–,"inconclusive: 1.39 µM [inhibitor, partial curve, poor fit]"
CSc1ccc(Cl)cc1,inconclusive: 4.93%,–
Cc1ccc(C(C)C)cc1,inconclusive: 9.65%,–
ClC(Cl)Cl,–,"inconclusive: 54.5 µM [inhibitor, single point]"
Oc1c(Cl)ccc(Cl)c1Cl,–,"inconclusive: 54.8 µM [rising, partial curve, poor fit]"
COc1cc2ncnc(Nc3cccc(Cl)c3)c2cc1OC,inactive: -15.1% [at 15.8 µM],–
CCOC(=O)c1ccc(N(C)C)cc1,inactive: 8.78%,–
CCNC(=O)NCCCOc1cccc(CN2CCCCC2)c1,inactive: 10.9% [at 35.3 µM],–

SMILES,activation,Potency
O=C(c1ccccc1)c1ccc2n1CCC2C(=O)O (stereo not given),inconclusive: 4.11% [at 35.3 µM],–
O=c1[nH][nH]c2ccccc12,–,"inconclusive: 14.1 µM [inhibitor, partial curve, poor fit]"
O=C=NC1CCC(CC2CCC(N=C=O)CC2)CC1 (stereo not given),inconclusive: -4.2%,–
CCCc1cc(=O)[nH]c(=S)[nH]1,–,inactive
CCCC(=O)OCCC(C)C,inconclusive: 18.7%,–
Cc1nnc(C(=O)NC(C)(C)c2nc(C(=O)NCc3ccc(F)cc3)c(O)c(=O)n2C)o1,inactive: 7.39% [at 35.3 µM],–
Cc1cccc(C)c1[N+](=O)[O-],–,inactive
CC(=O)/C=C/C1C(C)=CCC(C)C1(C)C (stereo not given),inactive: -1.49%,–
CO/N=C(/C(=O)N[C@@H]1C(=O)N2C(C(=O)O)=C(Cn3nnc(C)n3)CS[C@H]12)c1csc(N)n1,inactive: 9.86% [at 35.3 µM],–
Cc1cn([C@H]2C=C[C@@H](CO)O2)c(=O)[nH]c1=O,–,active: 17.4 µM
CCOC(OCC)OCC,inconclusive: 13%,–
NCCNCCNCCN,–,inactive
CC(C)=CC=O,inconclusive: 25.7%,–
CC(C#N)(CCC(=O)O)N=NC(C)(C#N)CCC(=O)O (stereo not given),inactive: 4.98%,–
NCc1ccco1,inactive: 1.62%,–
CC(=O)OC(C)(C)C1CC=C(C)CC1 (stereo not given),inconclusive: 17.9%,–
CC(COc1ccccc1)NN (stereo not given),inactive: 4.83% [at 35.3 µM],–
CN(C)Cc1cc(CN(C)C)c(O)c(CN(C)C)c1,–,inactive

# 3 compounds drawn at random from those above, as already listed:
SMILES,activation,Potency
NCc1ccco1,inactive: 1.62%,–
O=C=NC1CCC(CC2CCC(N=C=O)CC2)CC1 (stereo not given),inconclusive: -4.2%,–
CC(C)=CC=O,inconclusive: 25.7%,–

# Same assay, conditions: HEK293T RXRa-UAS-bla, beta-lactamase ratio, 16 h; at 76.8 µM (top of the series)
row,SMILES,activation
1,Cc1ccc(C(C)C)cc1,inactive: 5.64%
2,CC(=O)OC(C)(C)C1CC=C(C)CC1 (stereo not given),inactive: 3.81%
